These are yes or no findings as the source states them, for the method shown. A result given as binding can be weak or reduced; the word gives no strength.
Experiments:
[1] = target: T1, S210A DegP (E. coli) (UniProt P0C0V0); experiment: dynamic light scattering
T1 sequence: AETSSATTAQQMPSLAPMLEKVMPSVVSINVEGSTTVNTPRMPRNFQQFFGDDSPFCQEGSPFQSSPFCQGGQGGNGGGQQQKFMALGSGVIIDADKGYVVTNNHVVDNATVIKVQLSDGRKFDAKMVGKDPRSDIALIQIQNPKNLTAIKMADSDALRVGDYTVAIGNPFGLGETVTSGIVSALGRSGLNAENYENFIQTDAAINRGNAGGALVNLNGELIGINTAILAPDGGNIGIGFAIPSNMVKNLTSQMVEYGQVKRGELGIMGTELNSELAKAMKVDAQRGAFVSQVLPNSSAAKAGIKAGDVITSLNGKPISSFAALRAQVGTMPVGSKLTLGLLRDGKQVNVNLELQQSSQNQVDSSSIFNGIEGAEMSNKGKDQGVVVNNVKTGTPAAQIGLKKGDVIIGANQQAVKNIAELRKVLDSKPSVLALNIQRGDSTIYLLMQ

[2] = target: T1, S210A DegP (E. coli); experiment: cryo-EM structure

Substance: DNA binding domain of the human telomere repeat binding factor (hTRF1) (domain or fragment)
- binding [1]: binds
- binding [2]: binds

Source: doi:10.1101/2022.10.17.512556 (bioRxiv, 2022)
